{
  "source": "PubChem BioAssay AID2685",
  "about": "(National Center for Advancing Translational Sciences (NCATS), 2010)",
  "test": "qHTS Assay for Lipid Storage Modulators in Drosophila S3 Cells;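 for cell number change: cells counted by Cell Tracker Red CMTPX staining in the red channel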",
  "conditions": "BODIPY lipid droplet fluorescence, 18-24 h; for cell number change: measured here: cell count max response, cells fed with added oleic acid",
  "method_in_brief": "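Drosophila S3 cells got compounds at several concentrations plus oleic acid (400 uM solution). Laser-scanning cytometry with 488 nm excitation read lipid droplets at 500-530 nm and cells at 575-640 nm. Percent activity was relative to 20 uM Triacsin C.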",
  "key": {"[1]": {"conditions": "measured here: cell number channel AC50, cells fed with added oleic acid"}, "[2]": {"conditions": "measured here: lipid fluorescence (Fed channel) AC50, cells fed with added oleic acid"}},
  "note": "Some of the results follow. Shown are side measurements of this screen, not its main read-out; they come without a call. The list favours compounds with an active or inconclusive main result. Potencies come from curve fits of mixed quality, noted in brackets.",
  "data": [
    {"compound": "Cc1ccccc1NC(=O)c1ccc(COc2ccc3c(C)cc(=O)oc3c2)cc1", "values": [
      {"measurement": "AC50", "setting": "[1]", "value": "0.92 µM [falling, full curve, poor fit]"},
      {"measurement": "AC50", "setting": "[2]", "value": "0.651 µM [falling, single point]"}
    ]},
    {"compound": "COc1cccc(COC(=O)c2c(C)nn(-c3ccccc3)c2Cl)c1OC", "values": [
      {"measurement": "cell number change", "value": 54.6, "unit": "%"},
      {"measurement": "AC50", "setting": "[1]", "value": "23.1 µM [rising, single point]"}
    ]},
    {"compound": "CC1CN(C(=O)CCCN2C(=O)c3ccccc3C2=O)CC(C)O1", "note": "(stereo not given)", "values": [
      {"measurement": "cell number change", "value": -13.5, "unit": "%"},
      {"measurement": "AC50", "setting": "[2]", "value": "6.51 µM [falling, single point]"}
    ]},
    {"compound": "COC(=O)C(CC(C)C)NC(=O)CSc1nc(-c2ccccc2)c(C#N)c(=O)[nH]1", "note": "(stereo not given)", "values": [
      {"measurement": "cell number change", "value": -16.4, "unit": "%"},
      {"measurement": "AC50", "setting": "[2]", "value": "18.4 µM [falling, partial curve]"}
    ]},
    {"compound": "CCN(CC(=O)N1CCCC1)S(=O)(=O)c1ccc(F)cc1", "values": [
      {"measurement": "cell number change", "value": -5.26, "unit": "%"},
      {"measurement": "AC50", "setting": "[2]", "value": "18.4 µM [rising, single point]"}
    ]},
    {"compound": "CCOC(=O)C(=CNc1cc(C)nn1-c1ccccc1)C(=O)OCC", "values": [
      {"measurement": "AC50", "setting": "[2]", "value": "3.66 µM [rising, single point]"}
    ]},
    {"compound": "Cc1ccc(NC(=O)CSc2nc3ccccc3nc2N2CCOCC2)cc1", "values": [
      {"measurement": "cell number change", "value": -5.48, "unit": "%"},
      {"measurement": "AC50", "setting": "[2]", "value": "29.1 µM [falling, single point]"}
    ]},
    {"compound": "Cc1cccc(C)c1N1CCN(c2cc(Cl)nc(N)n2)CC1", "values": [
      {"measurement": "cell number change", "value": -35.1, "unit": "%"},
      {"measurement": "AC50", "setting": "[1]", "value": "29.1 µM [falling, single point]"},
      {"measurement": "AC50", "setting": "[2]", "value": "29.1 µM [falling, single point]"}
    ]},
    {"compound": "Cc1coc2cc3oc(=O)c(CCC(=O)NCCCN4CCOCC4)c(C)c3cc12", "values": [
      {"measurement": "cell number change", "value": 16.9, "unit": "%"}
    ]},
    {"compound": "CN(C)S(=O)(=O)c1ccc(NC(=O)C2CC(=O)N(Cc3ccccc3Cl)C2)cc1", "note": "(stereo not given)", "values": [
      {"measurement": "cell number change", "value": 7.09, "unit": "%"},
      {"measurement": "AC50", "setting": "[1]", "value": "0.651 µM [falling, full curve, poor fit]"},
      {"measurement": "AC50", "setting": "[2]", "value": "0.517 µM [falling, full curve]"}
    ]},
    {"compound": "Cc1cc(C)c([N+](=O)[O-])cc1-c1ccc(/C=N/NC(=O)c2nonc2N)o1", "values": [
      {"measurement": "cell number change", "value": 70.1, "unit": "%"},
      {"measurement": "AC50", "setting": "[1]", "value": "20.6 µM [rising, single point]"}
    ]},
    {"compound": "OCCCc1nc2n(n1)C(c1cccs1)C=C(c1ccccc1)N2", "note": "(stereo not given)", "values": [
      {"measurement": "cell number change", "value": -8.23, "unit": "%"},
      {"measurement": "AC50", "setting": "[2]", "value": "0.00461 µM [falling, full curve, poor fit]"}
    ]},
    {"compound": "CC(NC(=O)c1ccc(NC2=NC3CS(=O)(=O)CC3S2)cc1)c1ccccc1", "note": "(stereo not given)", "values": [
      {"measurement": "cell number change", "value": 11.2, "unit": "%"}
    ]},
    {"compound": "Cc1cc(C)cc(C(=O)NC(CC(N)=O)c2ccc(N3CCC(N4CCCCC4)CC3)c([N+](=O)[O-])c2)c1", "note": "(stereo not given)", "values": [
      {"measurement": "cell number change", "value": 0.599, "unit": "%"},
      {"measurement": "AC50", "setting": "[2]", "value": "3.26 µM [rising, single point]"}
    ]},
    {"compound": "COc1ccccc1N1CCN(CC(=O)Nc2ccccc2C(=O)NCCc2ccccc2)CC1", "values": [
      {"measurement": "cell number change", "value": 14.2, "unit": "%"},
      {"measurement": "AC50", "setting": "[2]", "value": "20.6 µM [rising, single point]"}
    ]},
    {"compound": "COc1ccc(CCNC(=O)CS(=O)Cc2nc(-c3ccccc3F)oc2C)cc1OC", "note": "(stereo not given)", "values": [
      {"measurement": "cell number change", "value": 64.3, "unit": "%"},
      {"measurement": "AC50", "setting": "[1]", "value": "18.4 µM [rising, single point]"}
    ]},
    {"compound": "O=C(/C=C/c1ccccc1)Nc1sc2c(c1C(=O)O)CCC2", "values": [
      {"measurement": "cell number change", "value": -6.67, "unit": "%"},
      {"measurement": "AC50", "setting": "[2]", "value": "0.082 µM [falling, full curve, poor fit]"}
    ]},
    {"compound": "CC(C)c1csc(CN2CCC(n3nccc3NC(=O)Cc3ccccc3)CC2)n1", "values": [
      {"measurement": "AC50", "setting": "[2]", "value": "29.1 µM [falling, single point]"}
    ]},
    {"compound": "Fc1cccc(CSc2ncnc3c2oc2ccccc23)c1", "values": [
      {"measurement": "cell number change", "value": 0.768, "unit": "%"},
      {"measurement": "AC50", "setting": "[2]", "value": "0.103 µM [rising, full curve, poor fit]"}
    ]},
    {"compound": "O=C(O)c1ccccc1S(=O)(=O)CC(=O)N1CCCCC1", "values": [
      {"measurement": "cell number change", "value": 9.72, "unit": "%"}
    ]},
    {"compound": "CC1(C)Cc2c(cnn2-c2cccc(F)c2)C(NC(=O)CCc2cnccn2)C1", "note": "(stereo not given)", "values": [
      {"measurement": "cell number change", "value": -7.74, "unit": "%"}
    ]},
    {"compound": "Cc1cc(NC(=O)c2cc(-c3cccs3)on2)nn1Cc1ccc(Cl)cc1", "values": [
      {"measurement": "cell number change", "value": -49.1, "unit": "%"},
      {"measurement": "AC50", "setting": "[1]", "value": "16.4 µM [falling, partial curve]"},
      {"measurement": "AC50", "setting": "[2]", "value": "29.1 µM [falling, single point]"}
    ]},
    {"compound": "CC(C)(C)OC(=O)N1CCC2(CC1)Oc1ccc(F)cc1C(=O)C21CC(c2cccnc2)=NO1", "note": "(stereo not given)", "values": [
      {"measurement": "cell number change", "value": 19.1, "unit": "%"},
      {"measurement": "AC50", "setting": "[2]", "value": "10.3 µM [rising, partial curve, poor fit]"}
    ]},
    {"compound": "COc1ccccc1N(C)S(=O)(=O)c1ccc(C(=O)OCC(N)=O)cc1", "values": [
      {"measurement": "cell number change", "value": 1.56, "unit": "%"},
      {"measurement": "AC50", "setting": "[2]", "value": "2.06 µM [falling, partial curve]"}
    ]},
    {"compound": "CC1CC(C)CN(S(=O)(=O)N2CCC(C(=O)NCCc3ccccc3)CC2)C1", "note": "(stereo not given)", "values": [
      {"measurement": "cell number change", "value": 1.53, "unit": "%"}
    ]},
    {"compound": "Cc1ccc(C(=O)NCCCn2ccnc2)cc1[N+](=O)[O-]", "values": [
      {"measurement": "cell number change", "value": -16.9, "unit": "%"},
      {"measurement": "AC50", "setting": "[1]", "value": "0.092 µM [falling, full curve, poor fit]"}
    ]},
    {"compound": "Cc1nc(-c2ccccc2)sc1C(=O)NN", "values": [
      {"measurement": "cell number change", "value": 63.5, "unit": "%"},
      {"measurement": "AC50", "setting": "[1]", "value": "2.91 µM [falling, single point]"},
      {"measurement": "AC50", "setting": "[2]", "value": "3.66 µM [falling, single point]"}
    ]},
    {"compound": "CCOc1ccc(N(C)S(=O)(=O)c2ccc(C)c(C(=O)Nc3nnc(C4CC4)s3)c2)cc1", "values": [
      {"measurement": "cell number change", "value": 17.6, "unit": "%"},
      {"measurement": "AC50", "setting": "[2]", "value": "6.51 µM [rising, partial curve, poor fit]"}
    ]},
    {"compound": "CCCCCc1nc2c(c(=O)c3ccccc3n2C)c(=O)n1Cc1ccc(OC)cc1", "values": [
      {"measurement": "cell number change", "value": 19.9, "unit": "%"},
      {"measurement": "AC50", "setting": "[2]", "value": "0.58 µM [rising, full curve]"}
    ]}
  ]
}
